According to the supplement of paper PMC4962491:
± gives the standard deviation of the averaged measurements. This is a selection; strong and weak results do not stand in their true shares. Most values lie within the scatter of the assay; repeated measurements hardly agree.

System: FaDu
Test: mitochondrial oxygen consumption rate normalised to cell number, Z score over the library; higher = higher oxygen consumption (negative = OCR reduction)
Details: treatment time 24 h, assay medium: 5 mM galactose, 5 mM pyruvate, 4 mM glutamine
Protocol: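 Primary screen: FaDu cells were incubated 24 h with Pharmakon 1600 / TDI oncology set compounds at 2 or 10 uM. Mitochondrial-specific OCR (basal minus 2 uM antimycin A) was measured on a Seahorse XF96 in assay medium with 5 mM galactose, 5 mM pyruvate and 4 mM glutamine, then corrected for Hoechst cell number and expressed as a Z score […]. Compounds that cut cell number by >66% were excluded. Two repeats.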

Row | SMILES | mitochondrial oxygen consumption rate normalised (2 µM) | mitochondrial oxygen consumption rate normalised (10 µM)
1 | C[C@]12CC[C@@H]3c4ccc(O)cc4CC[C@H]3[C@@H]1CC[C@@H]2OC(=O)CCC1CCCC1 | -0.693 ± 0.21 | –
2 | CN1CCc2cccc3c2[C@H]1Cc1ccc(O)c(O)c1-3 | -0.518 ± 0.077 | –
3 | CCC(NC(C)C)C(O)c1ccc(O)c(O)c1 (stereo unspecified) | -0.00809 ± 0.1 | –
4 | CCC(Cc1c(I)cc(I)c(N)c1I)C(=O)O (stereo unspecified) | -0.393 ± 0.32 | –
5 | CCOC(=O)C(C)(C)Oc1ccc(Cl)cc1 | 0.469 ± 1.6 | –
6 | C[C@@H]1[C@H](O)[C@@H](C)/C=C/C=C/C=C/C=C/C=C/C=C/C=C/[C@H](O[C@@H]2O[C@H](C)[C@@H](O)[C@H](N)[C@@H]2O)C[C@@H]2O[C@](O)(C[C@@H](O)C[C@@H](O)[C@H](O)CC[C@@H](O)C[C@@H](O)CC(=O)O[C@H]1C)C[C@H](O)[C@H]2C(=O)O | -0.24 ± 0.75 | –
7 | CO[C@@]1(NC(=O)CSCC#N)C(=O)N2C(C(=O)O)=C(CSc3nnnn3C)CS[C@@H]21 | -1.44 ± 2.2 | –
8 | CC(C)/N=c1\cc2n(-c3ccc(Cl)cc3)c3ccccc3nc-2cc1Nc1ccc(Cl)cc1 | 0.317 ± 0.31 | –
9 | O=C1Cc2cc(CCN3CCN(c4nsc5ccccc45)CC3)c(Cl)cc2N1 | -0.0273 ± 0.55 | –
10 | CC(=O)N(O)CCCCCNC(=O)CCC(=O)N(O)CCCCCNC(=O)CCC(=O)N(O)CCCCCN | -0.402 ± 1 | –
11 | CN1CC(=O)NC1=N | 0.328 ± 0.28 | –
12 | Nc1ncn([C@H]2C[C@H](O)[C@@H](CO)O2)c(=O)n1 [Decitabine] | 1.01 ± 0.85 | –
13 | CC(C)(C(=O)c1cccnc1)c1cccnc1 | 0.0154 ± 1.2 | –
14 | CCCCC1=NC2(CCCC2)C(=O)N1Cc1ccc(-c2ccccc2-c2nnn[nH]2)cc1 | 0.439 ± 1.1 | –
15 | CC[C@H]1OC(=O)[C@H](C)[C@@H](O[C@H]2C[C@@](C)(OC)[C@@H](O)[C@H](C)O2)[C@H](C)[C@@H](O[C@@H]2O[C@H](C)C[C@H](N(C)C)[C@H]2O)[C@](C)(OC)C[C@@H](C)C(=O)[C@H](C)[C@@H](O)[C@]1(C)O | -0.781 ± 1.5 | –
16 | O=C(Nc1ccc(C(=O)O)c(O)c1)c1ccccc1 | 0.498 ± 0.34 | –
17 | CCCCOC(=O)c1ccc(N)cc1 | -0.249 ± 0.2 | –
18 | N=C(N)NC(=O)c1nc(Cl)c(N)nc1N | 0.675 ± 1.5 | –
19 | COc1ccc(Cc2cnc(N)nc2N)cc1OC | 1.36 ± 0.16 | –
20 | S=C1SCN(Cc2ccccc2)CN1Cc1ccccc1 | -0.177 ± 0.077 | –
21 | Cc1cc(C2CCCCC2)n(O)c(=O)c1 | -0.396 ± 0.54 | –
22 | NS(=O)(=O)c1cc(C(=O)O)c(NCc2ccco2)cc1Cl | -1.21 ± 0.45 | –
23 | O=C(O)c1cc(=O)c2ccccc2o1 | 0.846 ± 0.41 | –
24 | CC(C)COCC(CN(Cc1ccccc1)c1ccccc1)N1CCCC1 (stereo unspecified) | 0.593 ± 0.7 | –
25 | CCOC(=O)[C@H](CCc1ccccc1)N[C@@H](C)C(=O)N1[C@H](C(=O)O)C[C@@H]2CCC[C@@H]21 | 0.605 ± 0.82 | –

Row | SMILES | mitochondrial oxygen consumption rate normalised (2 µM) | mitochondrial oxygen consumption rate normalised (10 µM)
26 | NC(=O)c1ncn([C@@H]2O[C@H](CO)[C@@H](O)[C@H]2O)n1 | 0.516 ± 0.71 | –
27 | CN[C@H](CC(C)C)C(=O)N[C@H]1C(=O)N[C@@H](CC(N)=O)C(=O)N[C@H]2C(=O)N[C@H]3C(=O)N[C@H](C(=O)N[C@H](C(=O)O)c4cc(O)cc(O)c4-c4cc3ccc4O)[C@H](O)c3ccc(c(Cl)c3)Oc3cc2cc(c3O[C@@H]2O[C@H](CO)[C@@H](O)[C@H](O)[C@H]2O[C@H]2C[C@](C)(N)[C@H](O)[C@H](C)O2)Oc2ccc(cc2Cl)[C@H]1O | -1.26 ± 0.25 | –
28 | O=C(CCCl)NCc1ccccc1 | -0.193 ± 0.39 | –
29 | CNS(=O)(=O)Cc1ccc2[nH]cc(CCN(C)C)c2c1 | 0.219 ± 1.4 | –
30 | NS(=O)(=O)c1cc2c(cc1Cl)N=CNS2(=O)=O | -3.45 ± 0.3 | –
31 | O=C(Nc1ccccc1)c1ccccc1O | -0.555 ± 0.59 | -0.209 ± 0.021
32 | Cc1[nH]c(=O)c(C#N)cc1-c1ccncc1 | 0.94 ± 0.057 | –
33 | CN(C)CCC=C1c2ccccc2CCc2ccccc21 | 1.31 ± 0.46 | –
34 | Cc1ccnc2c1NC(=O)c1cccnc1N2C1CC1 | 0.323 ± 0.88 | –
35 | C#C[C@]1(O)CC[C@H]2[C@@H]3CCc4cc(OC5CCCC5)ccc4[C@H]3CC[C@@]21C | 0.372 ± 0.19 | –
36 | Oc1ccc(Cl)c2c1CCC2 | -0.161 ± 0.55 | –
37 | CS(=O)(=O)c1ccc(C2=C(c3ccccc3)C(=O)OC2)cc1 | 0.505 ± 1.5 | –
38 | Cn1c(=O)c2[nH]cnc2n(C)c1=O | 0.186 ± 0.36 | –
39 | C=C[C@H]1CN2CC[C@H]1C[C@@H]2[C@@H](O)c1ccnc2ccc(OC)cc12 | -0.0801 ± 0.032 | –
40 | Cc1c(C(N)=O)cc([N+](=O)[O-])cc1[N+](=O)[O-] | 0.79 ± 1.3 | –
41 | N=C(N)N | -0.124 ± 0.71 | –
42 | C[C@]12C=CC(=O)C=C1CC[C@@H]1[C@@H]2[C@@H](O)C[C@@]2(C)[C@H]1CC[C@]2(O)C(=O)COP(=O)(O)O | 0.452 ± 0.56 | –
43 | C[C@]12CC[C@H]3C(=CCc4cc(O)ccc43)[C@@H]1CCC2=O | 1.05 ± 0.14 | –
44 | Cc1ncc([N+](=O)[O-])n1CC(O)CCl (stereo unspecified) | 0.288 ± 0.052 | –
45 | CN1C(C(=O)Nc2ccccn2)=C(O)c2sccc2S1(=O)=O | 0.79 ± 0.53 | –
46 | N#Cc1ccc2[nH]cc(CCCCN3CCN(c4ccc5oc(C(N)=O)cc5c4)CC3)c2c1 | 0.929 ± 0.07 | –
47 | CN(C)c1ccc2nc3ccc(=[N+](C)C)cc-3sc2c1 | -1.45 ± 0.23 | –
48 | COc1ccc(C2C(=O)c3ccccc3C2=O)cc1 | -0.43 ± 0.68 | –
49 | Cc1cccc(C)c1NC(=O)C1CCCCN1C (stereo unspecified) | -0.424 ± 0.013 | –
50 | COc1cc2c(cc1OC)C(=O)C(CC1CCN(Cc3ccccc3)CC1)C2 (stereo unspecified) | 0.235 ± 0.13 | –

11 of these compounds in a different format:

| Row | SMILES | mitochondrial oxygen consumption rate normalised (2 µM) | mitochondrial oxygen consumption rate normalised (10 µM) |
| --- | --- | --- | --- |
| 1 | C[C@]12CC[C@@H]3c4ccc(O)cc4CC[C@H]3[C@@H]1CC[C@@H]2OC(=O)CCC1CCCC1 | -0.693 ± 0.21 | – |
| 9 | O=C1Cc2cc(CCN3CCN(c4nsc5ccccc45)CC3)c(Cl)cc2N1 | -0.0273 ± 0.55 | – |
| 19 | COc1ccc(Cc2cnc(N)nc2N)cc1OC | 1.36 ± 0.16 | – |
| 21 | Cc1cc(C2CCCCC2)n(O)c(=O)c1 | -0.396 ± 0.54 | – |
| 24 | CC(C)COCC(CN(Cc1ccccc1)c1ccccc1)N1CCCC1 (stereo unspecified) | 0.593 ± 0.7 | – |
| 30 | NS(=O)(=O)c1cc2c(cc1Cl)N=CNS2(=O)=O | -3.45 ± 0.3 | – |
| 34 | Cc1ccnc2c1NC(=O)c1cccnc1N2C1CC1 | 0.323 ± 0.88 | – |
| 36 | Oc1ccc(Cl)c2c1CCC2 | -0.161 ± 0.55 | – |
| 46 | N#Cc1ccc2[nH]cc(CCCCN3CCN(c4ccc5oc(C(N)=O)cc5c4)CC3)c2c1 | 0.929 ± 0.07 | – |
| 47 | CN(C)c1ccc2nc3ccc(=[N+](C)C)cc-3sc2c1 | -1.45 ± 0.23 | – |
| 50 | COc1cc2c(cc1OC)C(=O)C(CC1CCN(Cc3ccccc3)CC1)C2 (stereo unspecified) | 0.235 ± 0.13 | – |
